Results on one molecule are retold here after paper PMC8607621.

By UniProt entry, the sequences of proteins in these tests, tags left out.
UniProt P48431: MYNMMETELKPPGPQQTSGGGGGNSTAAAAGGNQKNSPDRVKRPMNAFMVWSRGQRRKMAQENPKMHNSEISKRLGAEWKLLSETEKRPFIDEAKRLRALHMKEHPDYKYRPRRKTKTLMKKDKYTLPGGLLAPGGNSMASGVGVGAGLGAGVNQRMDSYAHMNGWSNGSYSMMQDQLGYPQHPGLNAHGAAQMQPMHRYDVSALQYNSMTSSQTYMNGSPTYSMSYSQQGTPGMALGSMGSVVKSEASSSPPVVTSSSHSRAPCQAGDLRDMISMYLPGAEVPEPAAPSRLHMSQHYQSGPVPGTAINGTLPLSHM

These are yes or no findings as the source states them, for the method shown. In cells and extracts the contact can be indirect. Some binding calls cover weakened binding; strength is not graded here.

In this assay the target is SOX2 (human (endogenous in HEK293E)) (UniProt P48431). Nature of the assay: co-IP; lysates of HEK293E cells transfected with SLUG; buffer 10 mM HEPES pH 8.0, 150 mM NaCl, 0.1 mM EDTA, 20% glycerol, 0.2% NP-40; immunoprecipitated with anti-SOX2 at 4 °C, TrueBlot Anti-Mouse Ig IP beads; immunoblot with anti-SLUG and anti-SOX2. (In general: A western blot detects proteins with antibodies after separation by electrophoresis.)

B1: SLUG (SNAI2) (protein, UniProt O43623 1-268)
chain: MPRSFLVKKHFNASKKPNYSELDTHTVIISPYLYESYSMPVIPQPEILSSGAYSPITVWTTAAPFHAQLPNGLSPLSGYSSSLGRVSPPPPSDTSSKDHSGSESPISDEEERLQSKLSDPHAIEAEKFQCNLCNKTYSTFSGLAKHKQLHCDAQSRKSFSCKYCDKEYVSLGALKMHIRTHTLPCVCKICGKAFSRPWLLQGHIRTHTGEKPFSCPHCNRAFADRSNLRAHLQTHSDVKKYQCKNCSKTFSRMSLLHKHEESGCCVAH
B1: the binding entry is “binds”.
